The conditions of data set [1]: 1990, cited from earlier work.
A short description of data set [2]: Tissue distribution-based herb-drug interaction study in rats (CIP i.v., PCE i.g.). It is filed as in vivo. The following applies: male, Sprague-Dawley, rat, plasma, iv, 0.036 g/kg, plasma ciprofloxacin; for AUC(0-inf) / AUC(0-t): n=3; for k el: n=3, read-out: ke (converted).
Data set [3] in a line: in vivo. The following applies: male, Sprague-Dawley, rat, plasma, po, plasma ciprofloxacin, rats, intragastric CIP […] + PCE 0.72 g/kg.
Where [4] appears, read: intravenous CIP 0.036 g/kg + PCE 0.72 g/kg.
Setting [5] is: intravenous CIP 0.036 g/kg alone.

Each structure is given as a SMILES string. Read-outs that look alike come from different tables or passages of the source.

With `O=C(O)c1cn(C2CC2)c2cc(N3CCNCC3)c(F)cc2c1=O` [CIP, ciprofloxacin], the intestinal excretion result in data set [1] (ref Rohwedder et al.) is “approximately 18%”. In data set [1] (ref Vance-Bryan et al.), the biliary excretion entry is listed as “approximately 1%”. In addition, the AUC(0-inf) in data set [2] (setting [4]) was 5060 ± 995 ng·h/mL; in data set [2] (setting [5]) it was 5610 ± 662 ng·h/mL; in data set [3] (AUC 0-∞), 3110 ± 665 ng·h/mL. Also, the AUC(0-t) amounted to 4720 ± 854 ng·h/mL in data set [2] (setting [4]), 5350 ± 686 ng·h/mL in data set [2] (setting [5]) and 3070 ± 633 ng·h/mL in data set [3] (AUC 0-t). The figures for the k el in data set [2] (setting [4]) and in data set [2] (setting [5]) were 0.000144 s⁻¹ and 0.000175 s⁻¹, respectively. The Cmax in data set [3] (C max) was determined as 892 ± 108 ng/mL.
